{"source": "PubChem BioAssay AID1259308 (NCATS, 2017)", "aim": "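Genes whose loss raises luciferase production in HEK293 cells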 (primary screen)", "cell system": "human HEK293 embryonic kidney cells stably expressing firefly luciferase (HEK-CMV-Luc2-Hygro)", "reagent": "single siRNA against human genes, 0.8 pmol siRNA per well", "timing": "72 h", "measured": "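Luciferase light (ONE-Glo) measured on one replicate plate set and viability (CellTiter-Glo) on the other, scaled to a negative control siRNA, with robust z-scores and luciferase per cell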", "scale": "total luciferase, z-score and total luciferase, % of control: higher = more reporter protein produced", "call rule": "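An siRNA counts as active if its total luciferase robust z-score exceeds 3; genes with two or more such siRNAs out of three were retested with fresh siRNAs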", "meaning of the calls": "active = raised luciferase; inactive = no rise", "note": "This is one part, drawn at random, of about 59,000 deposited reagents. About 1,510 of them (2.6%) count as active. 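Calls use total luciferase alone and ignore viability, so some active siRNAs may act by altering cell number.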 Reagents against one gene are numbered here. Not all columns of the deposit are shown."}
{"Target gene":"PCDH8 (GeneID 5100)","siRNA no.":1,"total luciferase, z-score":2.06,"total luciferase, % of control":123,"call":"inactive"}
{"Target gene":"PCDH8 (GeneID 5100)","siRNA no.":2,"total luciferase, z-score":1.24,"total luciferase, % of control":107,"call":"inactive"}
{"Target gene":"PCDH8 (GeneID 5100)","siRNA no.":3,"total luciferase, z-score":-0.894,"total luciferase, % of control":64.1,"call":"inactive"}
{"Target gene":"HTATSF1P2 (GeneID 401233)","siRNA no.":1,"total luciferase, z-score":-0.000217,"total luciferase, % of control":81.9,"call":"inactive"}
{"Target gene":"HTATSF1P2 (GeneID 401233)","siRNA no.":2,"total luciferase, z-score":0.0956,"total luciferase, % of control":83.8,"call":"inactive"}
{"Target gene":"HTATSF1P2 (GeneID 401233)","siRNA no.":3,"total luciferase, z-score":-0.122,"total luciferase, % of control":79.5,"call":"inactive"}
{"Target gene":"KLK7 (GeneID 5650)","siRNA no.":1,"total luciferase, z-score":-1.42,"total luciferase, % of control":53.6,"call":"inactive"}
{"Target gene":"KLK7 (GeneID 5650)","siRNA no.":2,"total luciferase, z-score":0.584,"total luciferase, % of control":93.5,"call":"inactive"}
{"Target gene":"KLK7 (GeneID 5650)","siRNA no.":3,"total luciferase, z-score":4.28,"total luciferase, % of control":167,"call":"active"}
{"Target gene":"MIPOL1 (GeneID 145282)","siRNA no.":1,"total luciferase, z-score":0.244,"total luciferase, % of control":86.7,"call":"inactive"}
{"Target gene":"MIPOL1 (GeneID 145282)","siRNA no.":2,"total luciferase, z-score":-0.31,"total luciferase, % of control":75.7,"call":"inactive"}
{"Target gene":"MIPOL1 (GeneID 145282)","siRNA no.":3,"total luciferase, z-score":0.449,"total luciferase, % of control":90.8,"call":"inactive"}
{"Target gene":"LIPT1 (GeneID 51601)","siRNA no.":1,"total luciferase, z-score":-0.661,"total luciferase, % of control":68.7,"call":"inactive"}
{"Target gene":"LIPT1 (GeneID 51601)","siRNA no.":2,"total luciferase, z-score":0.582,"total luciferase, % of control":93.5,"call":"inactive"}
{"Target gene":"LIPT1 (GeneID 51601)","siRNA no.":3,"total luciferase, z-score":0.0758,"total luciferase, % of control":83.4,"call":"inactive"}
{"Target gene":"HCAR3 (GeneID 8843)","siRNA no.":1,"total luciferase, z-score":1.82,"total luciferase, % of control":118,"call":"inactive"}
{"Target gene":"HCAR3 (GeneID 8843)","siRNA no.":2,"total luciferase, z-score":1.62,"total luciferase, % of control":114,"call":"inactive"}
{"Target gene":"HCAR3 (GeneID 8843)","siRNA no.":3,"total luciferase, z-score":1.34,"total luciferase, % of control":108,"call":"inactive"}
{"Target gene":"ABTB3 (GeneID 121551)","siRNA no.":1,"total luciferase, z-score":-1.59,"total luciferase, % of control":50.2,"call":"inactive"}
{"Target gene":"ABTB3 (GeneID 121551)","siRNA no.":2,"total luciferase, z-score":-0.631,"total luciferase, % of control":69.3,"call":"inactive"}
{"Target gene":"ABTB3 (GeneID 121551)","siRNA no.":3,"total luciferase, z-score":-0.4,"total luciferase, % of control":73.9,"call":"inactive"}
{"Target gene":"CCDC83 (GeneID 220047)","siRNA no.":1,"total luciferase, z-score":-0.47,"total luciferase, % of control":72.5,"call":"inactive"}
{"Target gene":"CCDC83 (GeneID 220047)","siRNA no.":2,"total luciferase, z-score":-0.809,"total luciferase, % of control":65.8,"call":"inactive"}
{"Target gene":"CCDC83 (GeneID 220047)","siRNA no.":3,"total luciferase, z-score":-0.304,"total luciferase, % of control":75.8,"call":"inactive"}
{"Target gene":"STK40 (GeneID 83931)","siRNA no.":1,"total luciferase, z-score":0.278,"total luciferase, % of control":87.4,"call":"inactive"}
{"Target gene":"STK40 (GeneID 83931)","siRNA no.":2,"total luciferase, z-score":1.25,"total luciferase, % of control":107,"call":"inactive"}
{"Target gene":"STK40 (GeneID 83931)","siRNA no.":3,"total luciferase, z-score":0.415,"total luciferase, % of control":90.1,"call":"inactive"}
{"Target gene":"AAGAB (GeneID 79719)","siRNA no.":1,"total luciferase, z-score":-0.274,"total luciferase, % of control":76.4,"call":"inactive"}
{"Target gene":"AAGAB (GeneID 79719)","siRNA no.":2,"total luciferase, z-score":3.98,"total luciferase, % of control":161,"call":"active"}
{"Target gene":"AAGAB (GeneID 79719)","siRNA no.":3,"total luciferase, z-score":-0.458,"total luciferase, % of control":72.8,"call":"inactive"}
{"Target gene":"ZNF394 (GeneID 84124)","siRNA no.":1,"total luciferase, z-score":-0.212,"total luciferase, % of control":77.7,"call":"inactive"}
{"Target gene":"ZNF394 (GeneID 84124)","siRNA no.":2,"total luciferase, z-score":-0.314,"total luciferase, % of control":75.6,"call":"inactive"}
{"Target gene":"ZNF394 (GeneID 84124)","siRNA no.":3,"total luciferase, z-score":1.29,"total luciferase, % of control":108,"call":"inactive"}

No new results follow: 5 of the entries above.
{"Target gene":"CCDC83 (GeneID 220047)","siRNA no.":3,"total luciferase, z-score":-0.304,"total luciferase, % of control":75.8,"call":"inactive"}
{"Target gene":"STK40 (GeneID 83931)","siRNA no.":1,"total luciferase, z-score":0.278,"total luciferase, % of control":87.4,"call":"inactive"}
{"Target gene":"STK40 (GeneID 83931)","siRNA no.":2,"total luciferase, z-score":1.25,"total luciferase, % of control":107,"call":"inactive"}
{"Target gene":"STK40 (GeneID 83931)","siRNA no.":3,"total luciferase, z-score":0.415,"total luciferase, % of control":90.1,"call":"inactive"}
{"Target gene":"AAGAB (GeneID 79719)","siRNA no.":1,"total luciferase, z-score":-0.274,"total luciferase, % of control":76.4,"call":"inactive"}
